# Reference: PubChem BioAssay AID504834 (National Center for Advancing Translational Sciences (NCATS), 2011)
# The whole screen tested about 320,000 compounds, of which about 22,000 (6.9%) were called active. This list was built around the results that the source calls inconclusive (neither active nor inactive); the mix of calls is not that of the screen. The call rests on the fitted dose curve; in most records, active means well fitted inhibition curve with a large enough effect; inconclusive means small, poorly fitted or top-dose-only effect, or another doubt; inactive means no such curve, though single readings can be large or run the other way. Potencies of inconclusive entries are doubtful fits and often do not repeat.
# Experiment: Primary qHTS for delayed death inhibitors of the malarial parasite plastid, 96 hour incubation
# Settings: P. falciparum luciferase reporter growth; series mostly up to 28.7 µM; activity change, negative = inhibition: at the top concentration
# Method in brief: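 Plates of compound plus infected erythrocytes (2% hematocrit, 0.05% parasitemia final) incubate 96 hours, 37 C, 5% CO2. Detection reagent added; reduced luminescence from the parasites' luciferase reporter flags inhibition.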
# On the % scale 0 is the no-effect control and ±100 the full control effect; potency means the concentration at half of the fitted maximal effect.
SMILES,Potency,"activity change, negative = inhibition"
CO/N=C/C(=N\Nc1ccc(C)cc1)C(=O)c1ccc(OC)cc1,"inconclusive: 14.7 µM [inhibitor, partial curve, poor fit]",
Cc1ccsc1CCNC(=O)C1CCC(=O)N(CCc2cccc(F)c2)C1 (stereo unspecified),"inconclusive: 0.0586 µM [inhibitor, full curve, poor fit]",
COc1ccc(NS(=O)(=O)c2ccc(N3CCOCC3)c(NC(=O)c3cccc(F)c3)c2)cc1,"inconclusive: 13.1 µM [inhibitor, single point]",
CN(CC(=O)Nc1cccc(F)c1)C(=O)c1ccccc1Sc1ccccc1C#N,"inconclusive: 10.4 µM [inhibitor, partial curve, poor fit]",
CCC(=O)N1CCCc2ccccc21,,inactive: 3.25%
Cc1ccc(NC2=Nc3ccccc3N3C2=Nc2c(c(C)nn2-c2ccccc2)C3c2ccc(O)c(O)c2)cc1 (stereo unspecified),"inconclusive: 9.28 µM [inhibitor, partial curve]",
O=C(NC1Cc2ccccc2C1)c1cc(COc2cccc(C(F)(F)F)c2)on1,,inactive: -18.1%
CN(C)CCCN(C(=O)/C=C/c1cccs1)c1nc2ccc(F)cc2s1,"inconclusive: 3.29 µM [inhibitor, partial curve, poor fit]",
O=C(N/N=C/c1cccc(F)c1)c1cc(-c2ccco2)nc2ccccc12,,inactive: 141%
COc1cc2cc3c(N)c(C(=O)Nc4sc(C)c(C)c4C#N)sc3nc2cc1OC,active: 11.7 µM,
O=C(NCc1ccco1)c1cccc(F)c1,"inconclusive: 0.0928 µM [inhibitor, partial curve, poor fit]",
COCCCNC(=O)c1ccc(CS(=O)(=O)c2ccccc2C)o1,"inconclusive: 13.1 µM [inhibitor, single point]",
CCn1c(SCC(=O)Nc2cc(C)c(Cl)cc2OC)nnc1-c1ccco1,,inactive: 29.3%
CCn1c(=O)n(Cc2ccco2)c(=N)c2c3c(sc21)COC(C)(C)C3,"inconclusive: 10.4 µM [inhibitor, single point]",
CC(=O)OC1CC2(C)/C(=N\O)CCC2C2CCc3cc(O)ccc3C12 (stereo unspecified),,inactive: -4.28%
CC1(C(=O)N2CCN(c3ccc([N+](=O)[O-])cc3)CC2)CC1(Cl)Cl (stereo unspecified),"inconclusive: 13.1 µM [inhibitor, single point]",
O=C(Nc1ccc(F)c(Cl)c1)c1ccc2c(c1)OCO2,"inconclusive: 9.28 µM [inhibitor, partial curve, poor fit]",
COC(=O)CN1C(=O)c2cccc3cccc1c23,"inconclusive: 9.28 µM [inhibitor, single point]",
COc1ccccc1Nc1nc(N)nc(CN2CCCCC2)n1,,inactive: -7.75%
CCOC(=O)N1CCN(S(=O)(=O)c2ccc(NC(C)=O)cc2)CC1,"inconclusive: 9.28 µM [inhibitor, partial curve]",
CC12C(=O)N(c3cccc(OC(=O)c4ccco4)c3)C(=O)C1C1c3ccccc3C2c2ccccc21 (stereo unspecified),"inconclusive: 18.5 µM [inhibitor, single point]",
Cn1c(-c2ccco2)n[nH]c1=S,,inactive: 0%
Cc1nn(-c2ccccc2)c(C)c1C(=O)NCc1ccccc1F,,inactive: -17.7%
CCOC(=O)c1c(S(=O)(=O)NCC(=O)Nc2cc(C)ccn2)c(C)n(C)c1C,,inactive: -11.1%

SMILES,Potency,"activity change, negative = inhibition"
COc1ccc(C2c3c(oc4ccccc4c3=O)C(=O)N2CC2CCCO2)cc1 (stereo unspecified),"inconclusive: 8.28 µM [inhibitor, partial curve]",
O=C(N/N=C/c1cccn1-c1ccccc1)c1ccncc1,"inconclusive: 18.5 µM [inhibitor, single point]",
Cc1nn(Cc2ccc(Cl)c(Cl)c2)c(C)c1NC(=O)c1cc(CC(C)C)on1,active: 0.329 µM,
COc1cc(/C=N/NC(N)=O)ccc1OC(=O)c1ccco1,,inactive: 10.1%
O=C1CN(C(=O)COc2ccc(F)cc2Br)c2ccccc2N1,"inconclusive: 5.22 µM [inhibitor, partial curve, poor fit]",
CC1=CCC2C(=O)N(c3nc4ccccc4n3C)C(=O)C2C1 (stereo unspecified),"inconclusive: 18.5 µM [inhibitor, single point]",
O=C(NCCCn1ccnc1)/C(=C\c1ccccc1Cl)NC(=O)c1ccccc1,,inactive: 27.9%
Cc1cc(C(=O)N2CCc3ccccc3C2)on1,"inconclusive: 1.85 µM [inhibitor, partial curve, poor fit]",
Cc1c(-c2ccccc2)nc2ccccc2c1C(=O)Oc1ccc([N+](=O)[O-])cc1,"inconclusive: 20.8 µM [inhibitor, partial curve, poor fit]",
CCCC(c1nnnn1CCC(C)C)N1CCC(C(N)=O)CC1 (stereo unspecified),active: 9.28 µM,
Cc1cc(C)cc(N(C(=O)c2ccccn2)C(C(=O)NC2CCCCC2)c2cccs2)c1 (stereo unspecified),"inconclusive: 1.04 µM [inhibitor, partial curve, poor fit]",
Cc1cc(C)c(CN2CCC(n3nccc3NC(=O)C3CCCC3)CC2)cc1C,"inconclusive: 4.15 µM [inhibitor, single point]",
Cc1cc(NC(=O)c2ccc(S(=O)(=O)Nc3ccccc3)cc2)no1,"inconclusive: 18.5 µM [inhibitor, single point]",
COc1ccc(NC(=O)C(=O)N/N=C(\C)CC(=O)Nc2cc(C)ccn2)c(OC)c1,,inactive: 32.3%
Cc1cc(C(=O)CSc2nnnn2C)c(C)n1-c1cccc(F)c1,"inconclusive: 0.37 µM [inhibitor, partial curve, poor fit]",
COc1ccc(NC(=O)N(Cc2ccc(C)cc2)Cc2cccnc2)c(OC)c1,"inconclusive: 18.5 µM [inhibitor, single point]",
CCc1nc(N2CCN(C(=O)c3ccccc3)CC2)c(C#N)c2c1COC(C)(C)C2,"inconclusive: 0.465 µM [inhibitor, full curve, poor fit]",
CCOC(=O)COc1nc(C)cc(C(F)(F)F)c1C#N,,inactive: 10.9%
CC(C)Cc1nnc(NS(=O)(=O)c2ccc(Cl)cc2)s1,"inconclusive: 0.165 µM [inhibitor, partial curve, poor fit]",
COc1cccc(CN2CCC(C(=O)N3CCN(c4ccccc4F)CC3)CC2)c1,"inconclusive: 18.5 µM [inhibitor, single point]",
Cc1cccc(-n2ncc3c2CCCC3NC(=O)CN2CCOC2=O)c1C (stereo unspecified),,inactive: 1.8%
COc1cccc(N2CCN(Cc3nc(N)nc(Nc4ccccc4OC)n3)CC2)c1,active: 0.329 µM,
O=C(O)/C=C/C(=O)Nc1ccc(O)cc1,active: 10.4 µM,
O=[N+]([O-])c1cc(-c2cnc3ccccc3n2)ccc1Oc1ccc(Br)cc1,,inactive: 62.4%

# Arranged by molar mass (largest number first): some entries from above.
SMILES,Potency,"activity change, negative = inhibition"
O=C1CN(C(=O)COc2ccc(F)cc2Br)c2ccccc2N1,"inconclusive: 5.22 µM [inhibitor, partial curve, poor fit]",
Cc1cc(NC(=O)c2ccc(S(=O)(=O)Nc3ccccc3)cc2)no1,"inconclusive: 18.5 µM [inhibitor, single point]",
Cc1cc(C(=O)N2CCc3ccccc3C2)on1,"inconclusive: 1.85 µM [inhibitor, partial curve, poor fit]",

# Single values from the list:
# Under activity change, negative = inhibition, Cc1cccc(-n2ncc3c2CCCC3NC(=O)CN2CCOC2=O)c1C (stereo unspecified) has the entry inactive: 1.8%
# Under Potency, Cc1cc(C(=O)CSc2nnnn2C)c(C)n1-c1cccc(F)c1 has the entry inconclusive: 0.37 µM [inhibitor, partial curve, poor fit]

# Continued.

SMILES,Potency,"activity change, negative = inhibition"
O=C(Nc1cccc([N+](=O)[O-])c1)c1ccc(-c2ccccc2)cc1,"inconclusive: 1.47 µM [inhibitor, partial curve, poor fit]",
COc1ccc(S(=O)(=O)N2CCC(C(=O)Nc3ccc(F)cc3)CC2)c2cccnc12,,inactive: 0.305%
COc1cc(C(C2=C(O)CC(C)(C)CC2=O)C2C(=O)CC(C)(C)CC2=O)cc(OC)c1OC (stereo unspecified),"inconclusive: 3.29 µM [inhibitor, single point]",
Cc1ccc([N+](=O)[O-])cc1-c1ccc(/C=N/NC(=O)c2cc3c(ccc4ccccc43)o2)o1,,inactive: 41.1%
CCCNC(=O)COC(=O)c1c2c(nc3ccccc13)CCC2,"inconclusive: 7.38 µM [inhibitor, partial curve]",
COc1cccc(NC(=S)N2CCCN(Cc3ccc(F)cc3)C2)c1,"inconclusive: 0.0033 µM [inhibitor, full curve, poor fit]",
Cc1ccc2c(c1)N(CC(=O)NCC1CCCO1)C(=O)CO2 (stereo unspecified),active: 7.38 µM,
Cc1ccn2c(CNCC3OCCc4ccccc43)c(C(=O)N3CCCCCC3)nc2c1 (stereo unspecified),,inactive: 25%
CC(=O)Nc1ccc(NC(=O)C(C)Sc2nnc(C3CC3)n2-c2ccccc2)cc1 (stereo unspecified),"inconclusive: 18.5 µM [inhibitor, partial curve, poor fit]",
Cn1c(-c2ccc(F)cc2)cnc1SCC(=O)Nc1ccccc1,"inconclusive: 0.0037 µM [inhibitor, full curve, poor fit]",
CC(C)=CCC1=C(OCC(=O)O)C(=O)c2ccccc2C1=O,active: 2.94 µM,
Cc1ccc(CCNC(=O)Cc2ccc(NC3=NC4CS(=O)(=O)CC4S3)cc2)cc1 (stereo unspecified),"inconclusive: 9.28 µM [inhibitor, single point]",
Cc1noc(N)c1C1(O)C(=O)N(C(C)C)c2ccccc21 (stereo unspecified),"inconclusive: 0.0928 µM [inhibitor, full curve, poor fit]",
COc1ccc(C2(O)CCN(CCCCOc3ccccc3)CC2)cc1,"inconclusive: 11.7 µM [inhibitor, partial curve, poor fit]",
O=c1c2cccc(Cl)c2nc2n1Cc1ccccc1-2,,inactive: 187%
COc1cccc(-c2cc(C(=O)N3C(C)CCCC3C)no2)c1 (stereo unspecified),,inactive: 8.18%
COc1cc2c(cc1OC)C(c1cccc(Br)c1)CC(=O)N2 (stereo unspecified),"inconclusive: 18.5 µM [inhibitor, single point]",
O=C1N(c2ccc(Cl)cc2)C(c2cccnc2)N2CCCN12 (stereo unspecified),"inconclusive: 11.7 µM [inhibitor, single point]",
Cc1ccc(C(=O)NCCNC(=O)COc2ccc(C)c(C)c2)cn1,,inactive: 26.7%
Cc1ccc(S(=O)(=O)c2ccc([N+](=O)[O-])cn2)cc1,"inconclusive: 18.5 µM [inhibitor, single point]",
CCN1CCN(C(=S)Nc2cccc(C(F)(F)F)c2)CC1,active: 9.28 µM,
COc1ccc(C(=O)NCc2cc(C(C)C)no2)cc1OC1CCN(C(C)C)CC1,"inconclusive: 18.5 µM [inhibitor, single point]",
COc1ccc(CN2CCNC(=O)C2CC(=O)N(C)Cc2ccccn2)cc1OC (stereo unspecified),"inconclusive: 9.28 µM [inhibitor, single point]",
